These results are taken from publication PMC9440282.

Common to all, as to assay: EMSA
Data set [1] concerns ASH2L + DPY30. The conditions noted are these: DPY30 increases affinity, soluble complex, sharp band; EMSA: protein dilutions 11.52-[…] mixed 1:1 with 80 nM DNA (40 nM final); protein buffer 25 mM HEPES pH 7.4, 150 mM NaCl, 0.5 mg/mL BSA, 5% glycerol; on ice 30 min; recombinant protein; label: 5'-FAM.
Data set [2] addresses DPY30 (human) (UniProt Q9C005). The note with it: DPY30 alone; EMSA: protein dilutions 11.52-[…] mixed 1:1 with 80 nM DNA (40 nM final); protein buffer 25 mM HEPES pH 7.4, 150 mM NaCl, 0.5 mg/mL BSA, 5% glycerol; on ice 30 min; recombinant protein; residues 1-99; protein details: tag-free after cleavage (His-SUMO/ULP1 or GST/3C); label: 5'-FAM. In general terms: In EMSA bound probe runs differently from free probe, usually more slowly.

The test system of data set [3] is ASH2L ΔPHD-WH del1-177 (human). The note with it: apo; EMSA: protein dilutions 11.52-[…] mixed 1:1 with 80 nM DNA (40 nM final); protein buffer 25 mM HEPES pH 7.4, 150 mM NaCl, 0.5 mg/mL BSA, 5% glycerol; on ice 30 min; recombinant protein; residues 178-534; protein details: tag-free after His-SUMO/ULP1 cleavage; label: 5'-FAM.
In data set [4] the test system is ASH2L ΔLL del178-285,del400-440 (human). The note with it: apo; EMSA: protein dilutions 11.52-[…] mixed 1:1 with 80 nM DNA (40 nM final); protein buffer 25 mM HEPES pH 7.4, 150 mM NaCl, 0.5 mg/mL BSA, 5% glycerol; on ice 30 min; recombinant protein; residues 1-534; protein details: tag-free after His-SUMO/ULP1 cleavage; label: 5'-FAM.
Data set [5] deals with ASH2L (human). The note with it: apo, mostly aggregates not entering the gel; EMSA: protein dilutions 11.52-[…] mixed 1:1 with 80 nM DNA (40 nM final); protein buffer 25 mM HEPES pH 7.4, 150 mM NaCl, 0.5 mg/mL BSA, 5% glycerol; on ice 30 min; recombinant protein; residues 1-534; protein details: tag-free after cleavage (His-SUMO/ULP1 or GST/3C); label: 5'-FAM.

Construct, isoform or probe ends are uncertain for at least one entry. For some assays here: No signal at the amounts used counts as a negative. For some assays here: Weaker means in comparison with the reference protein, sequence or condition of that experiment.

On to “TCTCTAGAGTCGACCTGCAGGCATG (double strand) [25 bp FAM-dsDNA]”, for which the binding result is “binds” in data set [1]; “no binding” in data set [2]; “binds more weakly” in data set [3]; “no binding” in data set [4]; “binds” in data set [5].
